Reference: patent US20150297564A1 (CORNELL UNIVERSITY, priority 2014, published 2015)
Entries after “also recorded” stand apart in the source; their conditions may differ. At least one structure is not confirmed: it was looked up by name or label, or the drawing left a doubt.

Assays:
Type in all cases: cell-based, mouse
UCP2 = assay: Islet UCP2 protein level (Western blot); conditions: islets of all genotypes (WT, GKO, SKO, dKO)
Description: (§1) All chemicals were purchased from Sigma (Saint Louis, Mo.) unless indicated otherwise. Detailed protocols, reagents, and instruments for islet isolation, culture, and insulin secretion were the same as described previously (Wang et al., “Molecular Mechanisms for Hyperinsulinaemia Induced by Overproduction of Selenium-Dependent Glutathione Peroxidase-1 in Mice,” Diabetologia 51:1515-1524 (2008), which is hereby incorporated by reference in its entirety). Briefly, Langerhans' islets were isolated from the WT, GKO, SKO, and dKO mice using a standard procedure (Gotoh et al., “An Improved Method for Isolation of Mouse Pancreatic Islets,” Transplantation 40:437-438 (1985), which is hereby incorporated by reference in its entirety) with minor modifications. Isolated islets (50 per sample, n=3 per group) were recovered in RPMI 1640 (Gibco, Grand Island, N.Y.) with 5.5 mM glucose and 10% FBS for 2 hours before treatment. For the islet experiments, ebselen, CuDIPs, and Se (sodium selenite) were used at 50, 10, and 0.1 μM and prepared in DMSO, ethanol, and saline, respectively. The same amounts of vehicle were used as the respective controls. The chemicals were removed after 5 hour incubation, and the islets were transferred to Krebs-Henseleit buffer for 30 min and then incubated for 60 min with 2.8 or 16.7 mM glucose in the same buffer. […]

PDX1 = assay: Islet PDX1 protein level (Western blot); conditions: dKO islets
Description: as §1

[1] = tested on: islets isolated from WT, GKO, SKO, and dKO mice; assay: Glucose-stimulated insulin secretion (GSIS) of isolated islets; conditions: for baseline insulin secretion versus solvent control: 2.8 mM glucose; for GSIS (insulin secretion) versus solvent control: 5 hour pre-treatment
Description: (§2) All chemicals were purchased from Sigma (Saint Louis, Mo.) unless indicated otherwise. Detailed protocols, reagents, and instruments for islet isolation, culture, and insulin secretion were the same as described previously (Wang et al., “Molecular Mechanisms for Hyperinsulinaemia Induced by Overproduction of Selenium-Dependent Glutathione Peroxidase-1 in Mice,” Diabetologia 51:1515-1524 (2008), which is hereby incorporated by reference in its entirety). Briefly, Langerhans' islets were isolated from the WT, GKO, SKO, and dKO mice using a standard procedure (Gotoh et al., “An Improved Method for Isolation of Mouse Pancreatic Islets,” Transplantation 40:437-438 (1985), which is hereby incorporated by reference in its entirety) with minor modifications. Isolated islets (50 per sample, n=3 per group) were recovered in RPMI 1640 (Gibco, Grand Island, N.Y.) with 5.5 mM glucose and 10% FBS for 2 hours before treatment. For the islet experiments, ebselen, CuDIPs, and Se (sodium selenite) were used at 50, 10, and 0.1 μM and prepared in DMSO, ethanol, and saline, respectively. The same amounts of vehicle were used as the respective controls. The chemicals were removed after 5 hour incubation, and the islets were transferred to Krebs-Henseleit buffer for 30 min and then incubated for 60 min with 2.8 or 16.7 mM glucose in the same buffer. The supernatants were collected for insulin analysis and the islets were used for mRNA, protein, and enzyme activity analyses.

[2] = tested on: gk, glut2, pdx1, ucp2 and genes in the ARE, GR, Wnt and NFAT pathways; assay: Real time Q-PCR of islet mRNA levels (GSIS regulators, ARE, GR, Wnt, NFAT pathway genes)
Description: as §2
Total RNA was extracted from islets using Trizol reagent (Invitrogen, Carlsbad, Calif.). Reverse transcription was performed using Super Script III reverse transcriptase, RNaseOUT Ribonuclease Inhibitor, and Oligo(dT)12-18 (Invitrogen). The cDNA obtained from 1 μg of total RNA was used as a template for PCR amplification. Oligonucleotide primers were designed based on Genebank entries and IDT PrimerQuest. Primer sequences for the GSIS-related genes are described in Table 1 below. Relative mRNA levels were determined by real time Q-PCR (7900HT; Applied Biosystems, Foster City, Calif.) as previously described (Pepper et al., “Impacts of Dietary Selenium Deficiency on Metabolic Phenotypes of Diet-Restricted GPX1-Overexpressing Mice,” Antioxid. Redox Signal. 14:383-390 (2011), which is hereby incorporated by reference in its entirety).

`O=c1c2ccccc2[se]n1-c1ccccc1` [ebselen] was tested, and the “UCP2 protein change versus control (direction)” value (UCP2) was “diminished”, the “PDX1 protein change versus control (direction)” value (PDX1) was “blocked” and the “baseline insulin secretion versus solvent control” value ([1]; GKO islets) was “elevated; also recorded: stimulated insulin secretion”. The “GSIS of treated GKO islets compared with WT level” value ([1]; GKO islets, 16.7 mM glucose) was “exceeded the WT level”, the “GSIS (insulin secretion) versus solvent control” value ([1]; GKO islets, 16.7 mM glucose) was “enhanced” and the “GSIS (insulin secretion) versus solvent control” value ([1]; SKO islets, 16.7 mM glucose) was “enhanced”. For the same molecule, the “baseline insulin secretion versus solvent control” value ([1]; WT islets) was “elevated; also recorded: stimulated insulin secretion”, the “GSIS (insulin secretion) versus solvent control” value ([1]; WT islets, 16.7 mM glucose) was “enhanced” and the “GSIS (insulin secretion) versus solvent control” value ([1]; dKO islets, 16.7 mM glucose) was “enhanced”. For the same molecule, the “Nrf2 mRNA” value ([2]; GKO islets) was “up-regulated”, the “genes in the GR pathway up-regulated” value ([2]; GKO islets) was 2 out of the 7 and the “genes in the NFAT pathway down-regulated” value ([2]; GKO islets) was 2 out of 6. The “genes in the PGC-1α-mediated ARE pathway up-regulated” value ([2]; GKO islets) was 6 out of the 9, the “gk, glut2, and pdx1 mRNA levels” value ([2]; GKO islets) was “up-regulation” and the “ucp2 mRNA level” value ([2]; GKO islets) was “down-regulation”. The “expression of genes in the four pathways (ARE, GR, Wnt, NFAT) versus controls” value ([2]; dKO islets) was “up-regulated”.
